PubChem BioAssay AID1224826 – NIAID, 2016
The whole screen tested about 17,000 reagents; shown is a part drawn at random. About 1,110 of them (6.6%) count as active. 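Active means lowered or raised reporter signal; replicate intensities are raw and not normalised per plate.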 Further read-outs or replicates are left out here.

- Test: 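Genes that change LPS-induced Tnf promoter activity in mouse macrophages when knocked down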 (primary screen)
- System: RAW264.7 G9 macrophages from mouse bearing reporters for p65 (GFP) and the Tnf promoter (mCherry)
- Reagents: siRNA pool against mouse genes, 100 nM
- Duration: 16 h of LPS stimulation, after 2 days of siRNA transfection
- Treatment: bacterial lipopolysaccharide (Salmonella minnesota R595), 10 ng/ml
- Measurement: 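Nuclear mCherry signal of the Tnf promoter reporter measured by imaging after background removal, scaled to each plate median and turned into robust z-scores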
- Direction: Tnf reporter robust z-score: higher = stronger Tnf promoter reporter signal after LPS
- Active means: 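Called active when robust z-score is at most -1.3, matching the median of the Tlr4 knock-down control, or over 3; control wells and wells with under 50 cells never active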
- Meaning of the calls: active = Tnf reporter clearly lowered or raised; inactive = no clear change in Tnf reporter

no.	target	Tnf reporter robust z-score	fewer than 50 cells in well	outcome
1	Zcchc12 (GeneID 72693)	1.19	enough cells in well	inactive
2	Tmem164 (GeneID 209497)	1.15	enough cells in well	inactive
3	Scrib (GeneID 105782)	-0.68	enough cells in well	inactive
4	Nfkbib (GeneID 18036)	-0.92	enough cells in well	inactive
5	Ctnnbip1 (GeneID 67087)	-0.3	enough cells in well	inactive
6	St8sia3 (GeneID 20451)		fewer than 50 cells per well; well left out of calls	inactive
7	Slu7 (GeneID 193116)	-0.67	enough cells in well	inactive
8	Wfdc21 (GeneID 66107)	2.77	enough cells in well	inactive
9	Cyb5r4 (GeneID 266690)	-0.05	enough cells in well	inactive
10	4930465K10Rik (GeneID 67640)		fewer than 50 cells per well; well left out of calls	inactive
11	Nhlh1 (GeneID 18071)	-1.29	enough cells in well	inactive
12	Fabp2 (GeneID 14079)	-0.01	enough cells in well	inactive
13	Stxbp6 (GeneID 217517)	0.16	enough cells in well	inactive
14	Os9 (GeneID 216440)		fewer than 50 cells per well; well left out of calls	inactive
15	Htr2c (GeneID 15560)	0.19	enough cells in well	inactive
16	Slc7a2 (GeneID 11988)	2.82	enough cells in well	inactive
17	Alx1 (GeneID 216285)	-1.23	enough cells in well	inactive
18	Alx4 (GeneID 11695)	0.73	enough cells in well	inactive
19	Cbx2 (GeneID 12416)	-0.66	enough cells in well	inactive
20	Enah (GeneID 13800)	-1	enough cells in well	inactive
21	Clic1 (GeneID 114584)	-0.08	enough cells in well	inactive
22	Gip (GeneID 14607)	-0.92	enough cells in well	inactive
23	Clmn (GeneID 94040)	0.7	enough cells in well	inactive
24	Ntan1 (GeneID 18203)	1.11	enough cells in well	inactive
25	Abcg5 (GeneID 27409)	-0.17	enough cells in well	inactive
26	Brinp1 (GeneID 56710)	0.12	enough cells in well	inactive
27	Elac1 (GeneID 114615)	-0.62	enough cells in well	inactive
28	9630028B13Rik (GeneID 319562)	2.89	enough cells in well	inactive
29	Nptx2 (GeneID 53324)	-0.09	enough cells in well	inactive
30	St8sia2 (GeneID 20450)	5.23	enough cells in well	active
31	Rab19 (GeneID 19331)	-0.77	enough cells in well	inactive
32	Tnc (GeneID 21923)	0.73	enough cells in well	inactive
33	Prl2c2 (GeneID 18811)	0.4	enough cells in well	inactive
34	Phc2 (GeneID 54383)	0.32	enough cells in well	inactive
35	Bcl7a (GeneID 77045)	-0.92	enough cells in well	inactive
36	Thap3 (GeneID 69876)		fewer than 50 cells per well; well left out of calls	inactive
37	Cfap418 (GeneID 67157)		fewer than 50 cells per well; well left out of calls	inactive
38	Rpsa (GeneID 16785)	-1.87	enough cells in well	active
39	Efna3 (GeneID 13638)	0.49	enough cells in well	inactive
40	A530016L24Rik (GeneID 319942)	-0.18	enough cells in well	inactive

Just “fewer than 50 cells in well” (6 entries from above):
Cyb5r4 (GeneID 266690) = enough cells in well
4930465K10Rik (GeneID 67640) = fewer than 50 cells per well; well left out of calls
Nhlh1 (GeneID 18071) = enough cells in well
Fabp2 (GeneID 14079) = enough cells in well
Stxbp6 (GeneID 217517) = enough cells in well
Os9 (GeneID 216440) = fewer than 50 cells per well; well left out of calls
